The values that follow come from paper PMC3879536.

No constants are given. Whether binding was seen depends on the method and setting. In cells and extracts the contact can be indirect. Binding calls can cover weak binding; strength is not graded here. Sequences can lack the tags named with a protein.

In the assay the target is T1, GFP-RCP (Rab coupling protein) (UniProt Q6WKZ4).
T1 sequence: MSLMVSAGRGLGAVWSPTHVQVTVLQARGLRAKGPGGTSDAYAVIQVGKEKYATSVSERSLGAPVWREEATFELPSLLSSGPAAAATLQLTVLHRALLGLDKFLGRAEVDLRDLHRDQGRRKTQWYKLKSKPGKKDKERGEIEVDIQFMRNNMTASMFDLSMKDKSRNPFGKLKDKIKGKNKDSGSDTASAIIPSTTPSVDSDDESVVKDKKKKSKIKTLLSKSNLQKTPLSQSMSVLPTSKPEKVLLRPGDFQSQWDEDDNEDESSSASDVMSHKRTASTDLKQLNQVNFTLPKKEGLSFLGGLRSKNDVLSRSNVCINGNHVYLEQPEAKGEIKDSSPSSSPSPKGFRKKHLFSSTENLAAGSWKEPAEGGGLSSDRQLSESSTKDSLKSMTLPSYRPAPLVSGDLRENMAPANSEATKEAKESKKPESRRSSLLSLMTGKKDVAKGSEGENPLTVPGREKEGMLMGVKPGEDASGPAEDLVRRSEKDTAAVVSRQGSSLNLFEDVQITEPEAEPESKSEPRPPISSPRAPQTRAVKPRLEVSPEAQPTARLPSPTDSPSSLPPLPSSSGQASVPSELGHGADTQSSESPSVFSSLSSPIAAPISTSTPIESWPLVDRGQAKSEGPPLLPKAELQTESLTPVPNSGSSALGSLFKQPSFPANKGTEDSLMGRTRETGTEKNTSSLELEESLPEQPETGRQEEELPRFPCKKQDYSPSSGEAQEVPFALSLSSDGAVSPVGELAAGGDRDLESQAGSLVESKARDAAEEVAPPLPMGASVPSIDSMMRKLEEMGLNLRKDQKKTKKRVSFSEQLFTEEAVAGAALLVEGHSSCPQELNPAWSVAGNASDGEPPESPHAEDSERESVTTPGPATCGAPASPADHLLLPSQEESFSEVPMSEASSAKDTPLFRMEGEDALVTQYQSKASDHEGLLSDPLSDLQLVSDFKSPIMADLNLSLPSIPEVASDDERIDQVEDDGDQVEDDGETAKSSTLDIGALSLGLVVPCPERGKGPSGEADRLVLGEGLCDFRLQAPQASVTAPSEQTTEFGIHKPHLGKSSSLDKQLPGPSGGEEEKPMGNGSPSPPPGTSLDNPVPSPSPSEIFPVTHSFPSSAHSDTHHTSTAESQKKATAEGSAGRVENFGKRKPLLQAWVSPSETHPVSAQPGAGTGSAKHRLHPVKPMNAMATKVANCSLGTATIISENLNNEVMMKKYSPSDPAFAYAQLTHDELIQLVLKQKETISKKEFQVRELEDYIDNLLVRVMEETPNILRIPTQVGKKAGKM
The experiment in a line: co-IP; H1299 empty vector or mutant p53 273H cells transfected with control or Dicer siRNA and GFP-RCP or a GFP control; lysed in IP lysis buffer (200 mM NaCl, 75 mM Tris-HCl pH 7, 0.15% Tween 20, EDTA, EGTA); GFP-RCP immunoprecipitated with a GFP antibody (Roche) and magnetic protein G beads; Western blot for α5 integrin, GFP, Rab11. In general terms: In western blotting, separated proteins are transferred to a membrane and probed.

With Rab11 (human (endogenous in H1299)), the binding entry is “binds”.

As to “α5 integrin (human (endogenous in H1299)) (receptor)”, the binding entry is “binds”.
